From patent US9675591B2, “Methods for treating seizure disorders and pain” (THE REGENTS OF THE UNIVERSITY OF CALIFORNIA, priority 2013, dated 2017)

Columns and labels:
Format in all cases: in vivo
[1] = tested on: mice; test: Acute toxicity, rotorod test in mice
Description: Abnormal neurological status in mice following SKA-19 administration was evaluated with the rotorod test. When a normal mouse is placed on a rod 1 inch in diameter that rotates at a speed of 6 rpm, the mouse can maintain equilibrium for a long time. Inability of the mouse to stay on the rotating rod in three trials for 1 min is taken as an indication of motor impairment. […] Mice were placed on a horizontally oriented grid (consisting of parallel 1.5-mm diameter rods situated 1 cm apart), and the grid was inverted. Animals that fell from the grid within 10 s were scored as impaired.

[2] = Acute toxicity, neurological status of rats (positional sense, muscle tone, gait and stance); settings: Sprague-Dawley, rat, in vivo, oral
Description: (§1) Abnormal neurological status in rats was evaluated by the positional sense test, the muscle tone test, and the gait and stance test. Inability of the rat to perform normally in at least two of these tests is taken as an indication of some neurological deficit.

[3] = tested on: rats; test: as above; settings: 30 mg/kg i.p.
Description: as §1

[4] = tested on: 6 Hz seizures; test: 6 Hz seizure test, compounds given i.p. as solution; settings: Mus musculus, ip, 10 min, mice, values stated uncertain
Description: The mouse maximal electroshock (MES) and 6 Hz seizure models were used. Motor toxicity was assessed using a modification of the horizontal screen test. ED50 values in the seizure models and TD50 values in the toxicity test were determined by nonlinear fitting of dose-response curves. […] Drugs solutions were injected intraperitoneally 10 min prior to administration of the electrical stimulus in a volume of 10 ml/kg body weight.

[5] = Pharmacokinetics in Sprague-Dawley rats; settings: male, rat, plasma, intraperitoneal, 10 mg/kg i.p.

In the case of `Nc1nc2ccc(OC(F)(F)F)cc2s1` [riluzole, 2-amino-6-(trifluoromethoxy)benzothiazole, reference compound], the “mice with affected rotorod performance and righting reflexes” value ([1]; 30 mg/kg i.p.) is reported as 8 out of 8, the mice that died ([1]; 100 mg/kg i.p.) is reported as 8 out of 8 and the TD50 [2] is reported as 21.4 mg/kg. The “animals with neurological deficits” value [3] was 4 out of 4, the deaths [3] was “killed one animal” and the ED50 [4] was 16.4 mg/kg. It also gave a concentration at 2 h [5] of 4.1 ± 0.2 µM.
